Test results as given in article doi:10.1101/129072.
Results are given in words; binding and its absence hold for the method and conditions named.

Sequences of proteins named here, by UniProt entry; tags and fusion partners are left off. A change or cut given only in a name is not applied to a line headed by its entry. A line that says so, or that is headed by a name, gives the form on record, which may keep a tag or linker. Residues count along the entry.
Rab11a-His12 (P62491, form named): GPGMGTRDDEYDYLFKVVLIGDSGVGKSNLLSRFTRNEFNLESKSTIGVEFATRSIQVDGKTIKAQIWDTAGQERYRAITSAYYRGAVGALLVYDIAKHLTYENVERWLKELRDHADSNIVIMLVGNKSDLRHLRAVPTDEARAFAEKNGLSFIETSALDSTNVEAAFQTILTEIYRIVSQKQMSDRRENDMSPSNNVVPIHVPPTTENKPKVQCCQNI
UniProt Q9Y4I1, residues 1534-1855: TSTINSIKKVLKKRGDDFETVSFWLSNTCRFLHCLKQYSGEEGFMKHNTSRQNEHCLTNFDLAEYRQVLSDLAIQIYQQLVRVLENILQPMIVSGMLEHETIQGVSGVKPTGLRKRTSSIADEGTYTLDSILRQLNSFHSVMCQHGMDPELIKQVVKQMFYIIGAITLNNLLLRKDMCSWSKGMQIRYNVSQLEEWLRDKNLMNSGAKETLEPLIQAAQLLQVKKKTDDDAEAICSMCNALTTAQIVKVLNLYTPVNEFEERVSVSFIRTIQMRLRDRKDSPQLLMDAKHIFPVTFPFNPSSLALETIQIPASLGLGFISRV
UniProt Q9ULV0, residues 1526-1848: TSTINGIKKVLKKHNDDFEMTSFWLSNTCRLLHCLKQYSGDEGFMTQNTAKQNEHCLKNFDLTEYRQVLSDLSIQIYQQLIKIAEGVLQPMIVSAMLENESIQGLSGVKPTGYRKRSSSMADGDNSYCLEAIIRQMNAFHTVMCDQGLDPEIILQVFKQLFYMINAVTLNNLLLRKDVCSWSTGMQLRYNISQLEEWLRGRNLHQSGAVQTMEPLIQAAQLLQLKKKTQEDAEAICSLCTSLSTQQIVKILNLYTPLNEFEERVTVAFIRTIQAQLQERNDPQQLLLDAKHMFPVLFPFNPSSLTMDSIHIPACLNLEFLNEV

Target: Rab11a-His12 (human) (UniProt P62491)
Experiment: co-sedimentation

binding | Substance
no binding (tested: 2 μM) | Myo5A-GTD (globular tail domain of human myosin 5a, residues 1534-1855) (from UniProt Q9Y4I1 1534-1855) (domain or fragment)
no binding (tested: 2 μM) | Myo5B-GTD (globular tail domain of human myosin 5b, residues 1526-1848) (from UniProt Q9ULV0 1526-1848) (domain or fragment)
